Results are given in words; binding and its absence hold for the method and conditions named. For part of these data: Binding seen in cells or lysates may run through a third protein. Some entries that bind do so weakly or less than the wild type. Where a sequence is shown, tags or fusion partners need not be part of it. One block for each binder: values may come before it.
Experiments:
[1] = target: 6xHis-tagged HACS1 SH3 domain (human) (UniProt Q9NSI8); assay: NMR titration; 1H,15N-HSQC of 15N-labeled HACS1 SH3 domain without and with a ten-fold excess of PIRB-GB1, matched NMR buffer, 700 MHz; amide chemical shift perturbations; both purified
[2] = target: T1, 6xHis-MBP tagged HACS1-SH3 domain (human) (UniProt Q9NSI8); assay: pull-down; 10 µg purified 6xHis-MBP-HACS1 SH3 domain or 6xHis-MBP mixed with 500 µg mouse bone marrow or splenocyte lysate, overnight with Nickel-NTA resin; washed and eluted with TBST pH 7.4; PIRB detected by Western blot; only the target purified
T1 sequence: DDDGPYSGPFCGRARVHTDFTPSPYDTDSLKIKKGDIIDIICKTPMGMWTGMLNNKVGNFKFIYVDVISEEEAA

[3] = target: T2, PIRB array peptide … (mouse); assay: peptide or protein array; 12-mer peptides synthesized on a cellulose membrane (SPOT); probed with 5 µM HACS1 SH3 protein in PBST pH 7.4; detected with HRP-conjugated anti-6xHis antibody, chemiluminescence; both purified
T2 sequence (peptide): DVTYAQLCSRTL

- binding [1]: binds
Binder: LCSRTLRQGAAAS (peptide, UniProt P97484 797-809) [murine PIRB-GB1 fusion protein]

- binding [2]: binds
B1: Paired immunoglobulin receptor B (PIRB) (receptor, UniProt P97484 25-841)
chain: SLPKPILRVQPDSVVSRRTKVTFLCEETIGANEYRLYKDGKLYKTVTKNKQKPENKAEFSFSNVDLSNAGQYRCSYSTQYKSSGYSDLLELVVTGHYWTPSLLAQASPVVTSGGYVTLQCESWHNDHKFILTVEGPQKLSWTQDSQYNYSTRKYHALFSVGPVTPNQRWICRCYSYDRNRPYVWSPPSESVELLVSGNLQKPTIKAEPGSVITSKRAMTIWCQGNLDAEVYFLHNEKSQKTQSTQTLQEPGNKGKFFIPSVTLQHAGQYRCYCYGSAGWSQPSDTLELVVTGIYEYYEPRLSVLPSPVVTAGGNMTLHCASDFPYDKFILTKEDKKFGNSLDTEHISSSGQYRALFIIGPTTPTHTGAFRCYGYYKNAPQLWSVPSALQQILISGLSKKPSLLTHQGHILDPGMTLTLQCFSDINYDRFALHKVGGADIMQHSSQQTDTGFSVANFTLGYVSSSTGGQYRCYGAHNLSSEWSASSEPLDILITGQLPLTPSLSVQPNHTVHSGETVSLLCWSMDSVDTFILSKEGSAQQPLRLKSKSHDQQSQAEFSMSAVTSHLSGTYRCYGAQDSSFYLLSSASAPVELTVSGPIETSTPPPTMSMPLGGLHMYLKALIGVSVAFILFLFIFIFILLRRRHRGKFRKDVQKEKDLQLSSGAEEPITRKGELQKRPNPAAATQEESLYASVEDMQTEDGVELNSWTPPEEDPQGETYAQVKPSRLRKAGHVSPSVMSREQLNTEYEQAEEGQGANNQAAESGESQDVTYAQLCSRTLRQGAAASPLSQAGEAPEEPSVYATLAAARPEAVPKDMEQ

- binding [3]: binds weakly
B2: 6xHis-MBP tagged HACS1-SH3 domain (domain or fragment, UniProt Q9NSI8 155-228)
chain: T1 sequence

Reference: PMC7666139
